{"sequences": {"note": "The chains behind the UniProt entries cited, without tags or fusion partners. Where a name states a change or a piece, a line headed by the entry shows the natural chain unless it says otherwise.", "UniProt Q2VPK5": "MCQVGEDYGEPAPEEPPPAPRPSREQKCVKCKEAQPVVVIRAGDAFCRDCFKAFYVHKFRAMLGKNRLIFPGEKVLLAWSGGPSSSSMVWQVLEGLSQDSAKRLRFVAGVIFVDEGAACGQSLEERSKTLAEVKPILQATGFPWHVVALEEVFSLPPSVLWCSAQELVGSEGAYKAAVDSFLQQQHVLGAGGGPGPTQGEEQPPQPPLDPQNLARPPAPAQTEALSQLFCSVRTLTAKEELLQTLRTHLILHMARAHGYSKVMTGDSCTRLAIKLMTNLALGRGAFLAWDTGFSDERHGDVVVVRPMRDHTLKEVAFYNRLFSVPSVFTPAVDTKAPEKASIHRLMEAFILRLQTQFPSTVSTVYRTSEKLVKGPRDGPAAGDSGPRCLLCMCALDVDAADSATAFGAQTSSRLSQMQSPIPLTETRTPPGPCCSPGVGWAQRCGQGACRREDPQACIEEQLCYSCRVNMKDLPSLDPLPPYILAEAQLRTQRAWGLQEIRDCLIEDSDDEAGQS", "UniProt Q9H7P9": "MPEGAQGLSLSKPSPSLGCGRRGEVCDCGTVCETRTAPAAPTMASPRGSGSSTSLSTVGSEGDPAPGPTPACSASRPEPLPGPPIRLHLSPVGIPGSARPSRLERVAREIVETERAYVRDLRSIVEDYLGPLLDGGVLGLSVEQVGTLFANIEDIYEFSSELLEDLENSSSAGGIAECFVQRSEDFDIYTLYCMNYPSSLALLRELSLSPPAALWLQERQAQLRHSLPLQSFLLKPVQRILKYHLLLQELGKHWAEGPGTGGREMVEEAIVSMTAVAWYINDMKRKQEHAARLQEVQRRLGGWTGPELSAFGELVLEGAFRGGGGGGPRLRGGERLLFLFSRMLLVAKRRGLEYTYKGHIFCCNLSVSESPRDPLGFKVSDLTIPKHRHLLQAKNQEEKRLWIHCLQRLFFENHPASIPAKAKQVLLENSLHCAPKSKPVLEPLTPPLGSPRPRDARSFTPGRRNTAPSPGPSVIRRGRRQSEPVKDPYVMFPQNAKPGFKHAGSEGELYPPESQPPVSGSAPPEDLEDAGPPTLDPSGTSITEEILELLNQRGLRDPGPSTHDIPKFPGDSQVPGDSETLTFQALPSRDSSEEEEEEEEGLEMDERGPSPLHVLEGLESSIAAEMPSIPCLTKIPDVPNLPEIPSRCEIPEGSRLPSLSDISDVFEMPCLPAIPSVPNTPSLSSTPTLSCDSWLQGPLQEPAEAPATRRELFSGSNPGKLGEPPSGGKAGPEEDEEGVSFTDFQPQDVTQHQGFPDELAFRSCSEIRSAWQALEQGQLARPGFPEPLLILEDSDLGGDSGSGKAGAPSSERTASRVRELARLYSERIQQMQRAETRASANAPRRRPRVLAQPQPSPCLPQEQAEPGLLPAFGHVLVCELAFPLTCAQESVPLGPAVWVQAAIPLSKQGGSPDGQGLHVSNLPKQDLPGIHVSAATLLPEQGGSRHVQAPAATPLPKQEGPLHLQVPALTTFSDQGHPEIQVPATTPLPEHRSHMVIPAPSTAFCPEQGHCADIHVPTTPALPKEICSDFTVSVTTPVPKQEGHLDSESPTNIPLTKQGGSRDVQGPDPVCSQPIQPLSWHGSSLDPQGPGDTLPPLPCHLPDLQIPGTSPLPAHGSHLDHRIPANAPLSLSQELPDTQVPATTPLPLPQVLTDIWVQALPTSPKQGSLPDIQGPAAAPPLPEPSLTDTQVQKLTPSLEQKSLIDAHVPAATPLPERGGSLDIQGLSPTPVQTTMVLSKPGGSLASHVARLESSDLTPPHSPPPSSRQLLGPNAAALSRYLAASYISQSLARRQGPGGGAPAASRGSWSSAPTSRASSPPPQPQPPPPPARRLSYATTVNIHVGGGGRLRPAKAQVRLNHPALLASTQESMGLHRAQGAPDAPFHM", "UniProt Q8NEW0": "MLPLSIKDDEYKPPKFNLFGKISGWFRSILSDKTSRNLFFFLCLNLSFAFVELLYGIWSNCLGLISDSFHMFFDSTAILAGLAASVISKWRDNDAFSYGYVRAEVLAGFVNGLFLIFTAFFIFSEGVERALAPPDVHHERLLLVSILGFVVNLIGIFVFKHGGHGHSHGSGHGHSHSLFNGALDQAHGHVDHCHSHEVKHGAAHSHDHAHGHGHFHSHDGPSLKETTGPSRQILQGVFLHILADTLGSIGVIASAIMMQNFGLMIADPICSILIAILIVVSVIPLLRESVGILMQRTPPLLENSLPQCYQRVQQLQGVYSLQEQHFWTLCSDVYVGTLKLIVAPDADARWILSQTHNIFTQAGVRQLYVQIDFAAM", "UniProt Q9Y296, whole entry": "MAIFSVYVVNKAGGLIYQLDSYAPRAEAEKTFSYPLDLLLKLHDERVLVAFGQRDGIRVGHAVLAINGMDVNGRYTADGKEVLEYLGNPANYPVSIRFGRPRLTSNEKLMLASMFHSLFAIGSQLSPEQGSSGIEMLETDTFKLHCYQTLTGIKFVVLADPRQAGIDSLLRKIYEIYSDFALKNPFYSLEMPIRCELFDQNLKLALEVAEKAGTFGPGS", "UniProt Q9BZG8": "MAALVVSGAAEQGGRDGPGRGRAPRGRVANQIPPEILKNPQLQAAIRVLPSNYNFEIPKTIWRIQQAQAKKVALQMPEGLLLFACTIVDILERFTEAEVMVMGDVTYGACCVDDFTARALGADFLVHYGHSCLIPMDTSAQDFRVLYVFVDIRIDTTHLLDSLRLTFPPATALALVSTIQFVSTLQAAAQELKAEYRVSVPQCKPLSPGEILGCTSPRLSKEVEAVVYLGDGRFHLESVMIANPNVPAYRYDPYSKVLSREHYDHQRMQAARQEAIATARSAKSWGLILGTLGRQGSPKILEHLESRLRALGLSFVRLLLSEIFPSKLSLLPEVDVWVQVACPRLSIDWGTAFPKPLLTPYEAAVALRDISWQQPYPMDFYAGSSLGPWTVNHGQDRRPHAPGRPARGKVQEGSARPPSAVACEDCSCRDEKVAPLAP", "UniProt Q6PK04": "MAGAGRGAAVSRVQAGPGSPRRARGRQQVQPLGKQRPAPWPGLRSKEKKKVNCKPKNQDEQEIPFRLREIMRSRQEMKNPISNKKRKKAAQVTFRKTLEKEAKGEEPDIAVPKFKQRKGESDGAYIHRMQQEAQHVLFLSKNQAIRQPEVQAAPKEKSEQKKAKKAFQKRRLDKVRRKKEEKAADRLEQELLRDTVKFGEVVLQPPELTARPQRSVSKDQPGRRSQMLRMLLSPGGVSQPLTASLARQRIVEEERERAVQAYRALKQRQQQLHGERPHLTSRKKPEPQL", "UniProt Q9BSR8": "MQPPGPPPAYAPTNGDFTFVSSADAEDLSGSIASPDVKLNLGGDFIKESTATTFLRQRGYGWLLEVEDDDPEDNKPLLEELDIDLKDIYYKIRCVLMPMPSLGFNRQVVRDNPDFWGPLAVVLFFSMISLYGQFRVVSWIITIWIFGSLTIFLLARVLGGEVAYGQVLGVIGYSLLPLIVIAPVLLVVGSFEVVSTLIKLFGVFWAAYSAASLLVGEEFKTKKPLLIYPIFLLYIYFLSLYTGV", "UniProt Q96FV2": "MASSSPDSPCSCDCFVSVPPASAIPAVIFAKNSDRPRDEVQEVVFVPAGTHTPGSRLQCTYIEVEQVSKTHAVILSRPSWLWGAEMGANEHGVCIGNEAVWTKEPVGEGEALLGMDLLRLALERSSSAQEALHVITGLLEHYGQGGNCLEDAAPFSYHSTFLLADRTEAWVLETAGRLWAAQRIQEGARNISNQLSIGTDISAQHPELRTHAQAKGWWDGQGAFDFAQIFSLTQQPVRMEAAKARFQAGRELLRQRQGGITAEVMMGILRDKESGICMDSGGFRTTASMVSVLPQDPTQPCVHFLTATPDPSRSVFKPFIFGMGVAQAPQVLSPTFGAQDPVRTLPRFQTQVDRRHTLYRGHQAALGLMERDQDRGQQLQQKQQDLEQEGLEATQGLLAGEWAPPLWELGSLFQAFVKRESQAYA", "UniProt Q8NBJ7": "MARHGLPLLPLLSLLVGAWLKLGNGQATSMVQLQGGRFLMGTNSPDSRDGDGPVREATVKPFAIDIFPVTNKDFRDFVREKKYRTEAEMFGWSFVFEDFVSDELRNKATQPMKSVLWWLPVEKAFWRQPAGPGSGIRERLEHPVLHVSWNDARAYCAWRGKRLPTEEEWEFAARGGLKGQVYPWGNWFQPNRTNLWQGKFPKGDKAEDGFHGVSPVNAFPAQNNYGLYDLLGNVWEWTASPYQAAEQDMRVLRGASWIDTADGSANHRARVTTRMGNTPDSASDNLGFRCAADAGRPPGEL", "UniProt Q9UM00": "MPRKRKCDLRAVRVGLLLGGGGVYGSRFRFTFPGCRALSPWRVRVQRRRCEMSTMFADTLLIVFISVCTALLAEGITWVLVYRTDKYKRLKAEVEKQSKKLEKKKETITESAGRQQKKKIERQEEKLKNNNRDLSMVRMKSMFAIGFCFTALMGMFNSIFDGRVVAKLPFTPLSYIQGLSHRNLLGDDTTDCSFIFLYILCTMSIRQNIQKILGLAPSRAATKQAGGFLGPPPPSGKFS", "UniProt Q9Y3E5": "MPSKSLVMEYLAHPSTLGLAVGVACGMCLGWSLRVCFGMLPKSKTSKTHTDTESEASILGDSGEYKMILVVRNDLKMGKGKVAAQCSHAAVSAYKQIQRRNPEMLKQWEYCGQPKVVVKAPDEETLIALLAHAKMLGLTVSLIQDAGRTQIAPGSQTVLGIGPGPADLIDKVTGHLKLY", "UniProt Q96JA3": "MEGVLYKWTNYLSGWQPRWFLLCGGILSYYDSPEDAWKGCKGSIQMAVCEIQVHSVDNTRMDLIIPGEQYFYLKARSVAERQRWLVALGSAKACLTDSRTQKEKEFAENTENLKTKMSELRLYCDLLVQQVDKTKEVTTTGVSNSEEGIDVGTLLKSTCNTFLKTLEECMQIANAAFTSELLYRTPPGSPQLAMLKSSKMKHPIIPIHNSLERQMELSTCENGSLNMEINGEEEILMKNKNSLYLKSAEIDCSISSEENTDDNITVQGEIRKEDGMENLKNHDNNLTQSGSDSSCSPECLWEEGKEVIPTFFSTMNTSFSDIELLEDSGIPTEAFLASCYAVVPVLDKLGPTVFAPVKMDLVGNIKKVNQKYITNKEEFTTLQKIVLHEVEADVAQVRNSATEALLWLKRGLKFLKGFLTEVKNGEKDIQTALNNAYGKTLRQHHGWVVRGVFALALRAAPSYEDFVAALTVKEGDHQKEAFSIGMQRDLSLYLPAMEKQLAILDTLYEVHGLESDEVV", "UniProt P51991": "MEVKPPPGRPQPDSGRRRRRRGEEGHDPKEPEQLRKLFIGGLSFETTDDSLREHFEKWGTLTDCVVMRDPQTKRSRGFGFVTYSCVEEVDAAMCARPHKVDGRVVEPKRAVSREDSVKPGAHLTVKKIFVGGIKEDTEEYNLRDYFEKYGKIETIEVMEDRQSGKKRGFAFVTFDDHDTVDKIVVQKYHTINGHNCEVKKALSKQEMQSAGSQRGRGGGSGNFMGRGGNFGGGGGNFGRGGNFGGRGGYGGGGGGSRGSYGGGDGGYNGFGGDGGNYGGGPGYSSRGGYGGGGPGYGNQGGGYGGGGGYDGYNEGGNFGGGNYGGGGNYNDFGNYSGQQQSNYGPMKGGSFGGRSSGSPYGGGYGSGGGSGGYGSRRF", "UniProt Q9UG56": "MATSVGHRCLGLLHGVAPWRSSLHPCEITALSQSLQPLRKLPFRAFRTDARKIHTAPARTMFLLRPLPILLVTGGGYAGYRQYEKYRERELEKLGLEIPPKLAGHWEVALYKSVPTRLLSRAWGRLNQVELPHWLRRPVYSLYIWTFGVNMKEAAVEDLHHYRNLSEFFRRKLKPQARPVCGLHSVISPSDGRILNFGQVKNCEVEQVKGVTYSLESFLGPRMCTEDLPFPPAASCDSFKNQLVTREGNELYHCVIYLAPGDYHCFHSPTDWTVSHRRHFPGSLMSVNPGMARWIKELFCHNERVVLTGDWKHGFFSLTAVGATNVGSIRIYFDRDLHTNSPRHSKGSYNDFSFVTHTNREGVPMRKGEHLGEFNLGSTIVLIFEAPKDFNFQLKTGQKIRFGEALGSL", "UniProt P09493, whole entry": "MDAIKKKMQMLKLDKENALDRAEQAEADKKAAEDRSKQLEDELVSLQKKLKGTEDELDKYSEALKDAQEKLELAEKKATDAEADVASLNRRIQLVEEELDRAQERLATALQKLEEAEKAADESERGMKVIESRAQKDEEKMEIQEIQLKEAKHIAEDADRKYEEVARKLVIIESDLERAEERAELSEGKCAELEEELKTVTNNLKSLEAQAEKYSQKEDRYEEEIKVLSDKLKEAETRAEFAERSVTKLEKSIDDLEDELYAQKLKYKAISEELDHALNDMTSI", "UniProt Q9NXW2": "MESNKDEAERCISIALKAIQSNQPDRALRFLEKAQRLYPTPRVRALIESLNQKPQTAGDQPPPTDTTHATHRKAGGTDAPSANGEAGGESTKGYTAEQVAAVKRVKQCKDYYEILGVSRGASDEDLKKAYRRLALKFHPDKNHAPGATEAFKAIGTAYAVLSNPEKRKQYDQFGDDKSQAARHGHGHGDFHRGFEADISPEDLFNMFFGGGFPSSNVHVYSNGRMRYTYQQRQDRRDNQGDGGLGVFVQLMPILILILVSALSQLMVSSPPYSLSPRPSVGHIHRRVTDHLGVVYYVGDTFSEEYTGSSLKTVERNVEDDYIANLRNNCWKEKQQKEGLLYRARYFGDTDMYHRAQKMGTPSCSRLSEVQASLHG"}, "source": "the supplement of paper PMC6411743", "note": "± gives the standard deviation of the averaged measurements. The list shows a part of the results, in another mix than the full data. Most values lie at the level of the controls, where differences are scatter."}
{"compound": "Nc1ncnc2c1ncn2[C@@H]1O[C@H](COP(=O)(O)OP(=O)(O)NP(=O)(O)O)[C@@H](O)[C@H]1O [adenylyl imidodiphosphate]", "assay": "NP40-soluble protein abundance relative to vehicle (solubility fold change) (ratio); higher = more soluble protein in presence of AMP-PNP", "conditions": "concentration: 0.5mM", "in_short": "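Eight concentrations, 0.1 to 10 mM, were tested on Jurkat crude lysate for 10 min at room temperature and then 3 min at 37 °C, in three independent experiments. The lysate was solubilised with 0.8% NP40 and benzonase, ultracentrifuged, and the supernatant TMT-labelled for LC-MS/MS. Each value is the fold change against the detergent-processed vehicle in its own replicate, from vsn-normalised intensities.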"}
{"target": "H0YDM4 and related entries (UniProt Q86VS8)", "NP40-soluble protein abundance": "0.993 ± 0.014"}
{"target": "H3BQW8 and related entries (UniProt Q16775)", "NP40-soluble protein abundance": "1.05 ± 0.074"}
{"target": "H3BSW6 and related entries (UniProt Q2VPK5)", "NP40-soluble protein abundance": "0.98 ± 0.033"}
{"target": "H7BXC7 and related entries (UniProt Q9H7P9)", "NP40-soluble protein abundance": "1.003 ± 0.0097"}
{"target": "H3BRB6 and related entries (UniProt Q8ND25)", "NP40-soluble protein abundance": "0.988 ± 0.025"}
{"target": "I3L2B0 and related entries (UniProt O75153)", "NP40-soluble protein abundance": "0.995 ± 0.032"}
{"target": "H0Y362 and related entries (UniProt Q8NEW0)", "NP40-soluble protein abundance": "0.995 ± 0.012"}
{"target": "J3KNW7 and related entries (UniProt Q9Y592)", "NP40-soluble protein abundance": "0.997 ± 0.011"}
{"target": "G5E9V4 and related entries (UniProt Q969F9)", "NP40-soluble protein abundance": "0.997 ± 0.022"}
{"target": "H0Y9Z5 and related entries (UniProt Q96LI5)", "NP40-soluble protein abundance": "0.973 ± 0.059"}
{"target": "J3KP27 and related entries (UniProt Q9Y296)", "NP40-soluble protein abundance": "0.988 ± 0.052"}
{"target": "H7BZJ3 and related entries (UniProt P30101)", "NP40-soluble protein abundance": "1.02 ± 0.053"}
{"target": "I3L1H5 and related entries (UniProt Q9BZG8)", "NP40-soluble protein abundance": "1.02 ± 0.019"}
{"target": "I3L0U5 and related entries (UniProt Q6PK04)", "NP40-soluble protein abundance": "1.01 ± 0.038"}
{"target": "H3BP13 and related entries (UniProt Q9UL33)", "NP40-soluble protein abundance": "1.02 ± 0.025"}
{"target": "J3QTA2 and related entries (UniProt Q99933)", "NP40-soluble protein abundance": "0.994 ± 0.016"}
{"target": "I3L1K6 and related entries (UniProt P12829)", "NP40-soluble protein abundance": "0.967 ± 0.011"}
{"target": "H0YKS8 and related entries (UniProt Q08431)", "NP40-soluble protein abundance": "1 ± 0.015"}
{"target": "J3QT09 and related entries (UniProt Q9BQF6)", "NP40-soluble protein abundance": "0.9976 ± 0.0032"}
{"target": "H0Y398 and related entries (UniProt Q9H8U3)", "NP40-soluble protein abundance": "1.01 ± 0.055"}
{"target": "H3BPZ0 and related entries (UniProt Q6PCT2)", "NP40-soluble protein abundance": "1.02 ± 0.036"}
{"target": "H7C0D5 and related entries (UniProt Q9BSR8)", "NP40-soluble protein abundance": "0.971 ± 0.022"}
{"target": "H0YMI4 and related entries (UniProt Q9Y6I4)", "NP40-soluble protein abundance": "1 ± 0.044"}
{"target": "H0YL22 and related entries (UniProt Q9Y375)", "NP40-soluble protein abundance": "1.01 ± 0.038"}
{"target": "G3V5P0 and related entries (UniProt Q86UP2)", "NP40-soluble protein abundance": "1.01 ± 0.067"}
{"target": "J3QL71 and related entries (UniProt Q96FV2)", "NP40-soluble protein abundance": "1.05 ± 0.069"}
{"target": "J3KQJ1 and related entries (UniProt Q8NBJ7)", "NP40-soluble protein abundance": "1 ± 0.029"}
{"target": "J9JIE6 and related entries (UniProt Q9UM00)", "NP40-soluble protein abundance": "1.02 ± 0.053"}
{"target": "H7BXK9 and related entries (UniProt Q9NP58)", "NP40-soluble protein abundance": "0.953 ± 0.016"}
{"target": "I3L2M1 and related entries (UniProt Q8WYJ6)", "NP40-soluble protein abundance": "0.991 ± 0.027"}
{"target": "J3KQ48 and related entries (UniProt Q9Y3E5)", "NP40-soluble protein abundance": "1.03 ± 0.032"}
{"target": "J3KQS5 and related entries (UniProt Q96JA3)", "NP40-soluble protein abundance": "0.976 ± 0.02"}
{"target": "H7C1J8 and related entries (UniProt P51991)", "NP40-soluble protein abundance": "1.11 ± 0.087"}
{"target": "H0Y7P7 and related entries (UniProt Q9UG56)", "NP40-soluble protein abundance": "0.9579 ± 0.0055"}
{"target": "H7BYY1 and related entries (UniProt P09493)", "NP40-soluble protein abundance": "1.17 ± 0.15"}
{"target": "K7EJ78 and related entries (UniProt P62841)", "NP40-soluble protein abundance": "1.05 ± 0.044"}
{"target": "J3KPS0 and related entries (UniProt Q9NXW2)", "NP40-soluble protein abundance": "0.991 ± 0.015"}
{"target": "H0YC40 and related entries (UniProt Q08722)", "NP40-soluble protein abundance": "1.01 ± 0.026"}
